Results are given in words; binding and its absence hold for the method and conditions named. In cells and extracts the contact can be indirect. Some binding calls cover weakened binding; strength is not graded here. For some assays here: Sequences can lack the tags named with a protein.
Experiments:
[1] = target: T1, Scc2-12Myc (budding yeast) (UniProt Q04002); test: co-IP; anti-MYC immunoprecipitation of Scc2-12Myc from yeast lysates, with or without depletion of Scc3-3V5-AID by 1 mM IAA; Western blot with anti-Mcd1
T1 sequence: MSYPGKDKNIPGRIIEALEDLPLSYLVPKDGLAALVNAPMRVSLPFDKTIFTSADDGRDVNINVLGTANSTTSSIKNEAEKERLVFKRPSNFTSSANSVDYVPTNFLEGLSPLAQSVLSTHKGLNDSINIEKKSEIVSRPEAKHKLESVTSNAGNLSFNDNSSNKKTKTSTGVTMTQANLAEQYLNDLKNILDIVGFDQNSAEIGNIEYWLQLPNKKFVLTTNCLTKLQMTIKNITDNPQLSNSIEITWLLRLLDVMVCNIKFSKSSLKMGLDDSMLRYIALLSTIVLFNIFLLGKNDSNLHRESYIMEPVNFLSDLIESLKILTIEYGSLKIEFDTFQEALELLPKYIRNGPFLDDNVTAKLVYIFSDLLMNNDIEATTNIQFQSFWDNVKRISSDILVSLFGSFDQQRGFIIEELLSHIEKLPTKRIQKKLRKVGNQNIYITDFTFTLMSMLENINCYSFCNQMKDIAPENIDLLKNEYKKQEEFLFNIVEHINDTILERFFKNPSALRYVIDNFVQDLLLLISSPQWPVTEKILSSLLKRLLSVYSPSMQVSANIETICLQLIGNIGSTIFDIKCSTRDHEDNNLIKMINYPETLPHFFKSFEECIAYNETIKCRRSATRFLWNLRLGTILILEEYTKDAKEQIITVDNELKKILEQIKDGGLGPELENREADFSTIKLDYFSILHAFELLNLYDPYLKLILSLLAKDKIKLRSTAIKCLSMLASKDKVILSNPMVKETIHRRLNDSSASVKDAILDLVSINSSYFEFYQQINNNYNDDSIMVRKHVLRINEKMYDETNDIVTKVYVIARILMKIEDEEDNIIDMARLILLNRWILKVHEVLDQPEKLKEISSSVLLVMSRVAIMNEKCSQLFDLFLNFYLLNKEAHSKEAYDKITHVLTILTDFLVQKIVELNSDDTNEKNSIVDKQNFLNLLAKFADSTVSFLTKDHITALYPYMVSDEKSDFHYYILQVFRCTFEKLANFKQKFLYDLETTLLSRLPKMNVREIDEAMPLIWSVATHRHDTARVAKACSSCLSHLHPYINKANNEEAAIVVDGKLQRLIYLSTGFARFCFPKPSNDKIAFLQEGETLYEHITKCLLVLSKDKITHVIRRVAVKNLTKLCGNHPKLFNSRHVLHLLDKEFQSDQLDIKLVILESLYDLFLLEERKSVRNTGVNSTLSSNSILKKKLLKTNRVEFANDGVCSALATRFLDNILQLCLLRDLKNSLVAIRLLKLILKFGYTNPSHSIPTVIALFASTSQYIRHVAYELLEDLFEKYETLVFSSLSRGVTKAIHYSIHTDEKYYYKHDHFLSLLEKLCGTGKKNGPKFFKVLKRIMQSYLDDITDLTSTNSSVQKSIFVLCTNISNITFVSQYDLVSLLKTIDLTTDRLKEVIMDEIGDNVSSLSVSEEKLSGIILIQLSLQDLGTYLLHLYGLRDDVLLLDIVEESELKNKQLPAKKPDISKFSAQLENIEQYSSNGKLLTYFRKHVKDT

[2] = target: T2, scc3-Y371A-6HA (budding yeast) (UniProt P40541); test: co-IP; anti-HA immunoprecipitation of Scc3-6HA (wild type or mutant) from yeast lysates, mid-log cells; IPH150 or IPH50 buffer (50 mM Tris pH 8.0, 150/50 mM NaCl, 5 mM EDTA, 0.5% NP-40, 1 mM DTT), 4°C, protein A/G agarose, Western blot of partners; also in wpl1Δ strains and after depletion of Pds5-3V5-AID with 1 mM IAA
T2 sequence: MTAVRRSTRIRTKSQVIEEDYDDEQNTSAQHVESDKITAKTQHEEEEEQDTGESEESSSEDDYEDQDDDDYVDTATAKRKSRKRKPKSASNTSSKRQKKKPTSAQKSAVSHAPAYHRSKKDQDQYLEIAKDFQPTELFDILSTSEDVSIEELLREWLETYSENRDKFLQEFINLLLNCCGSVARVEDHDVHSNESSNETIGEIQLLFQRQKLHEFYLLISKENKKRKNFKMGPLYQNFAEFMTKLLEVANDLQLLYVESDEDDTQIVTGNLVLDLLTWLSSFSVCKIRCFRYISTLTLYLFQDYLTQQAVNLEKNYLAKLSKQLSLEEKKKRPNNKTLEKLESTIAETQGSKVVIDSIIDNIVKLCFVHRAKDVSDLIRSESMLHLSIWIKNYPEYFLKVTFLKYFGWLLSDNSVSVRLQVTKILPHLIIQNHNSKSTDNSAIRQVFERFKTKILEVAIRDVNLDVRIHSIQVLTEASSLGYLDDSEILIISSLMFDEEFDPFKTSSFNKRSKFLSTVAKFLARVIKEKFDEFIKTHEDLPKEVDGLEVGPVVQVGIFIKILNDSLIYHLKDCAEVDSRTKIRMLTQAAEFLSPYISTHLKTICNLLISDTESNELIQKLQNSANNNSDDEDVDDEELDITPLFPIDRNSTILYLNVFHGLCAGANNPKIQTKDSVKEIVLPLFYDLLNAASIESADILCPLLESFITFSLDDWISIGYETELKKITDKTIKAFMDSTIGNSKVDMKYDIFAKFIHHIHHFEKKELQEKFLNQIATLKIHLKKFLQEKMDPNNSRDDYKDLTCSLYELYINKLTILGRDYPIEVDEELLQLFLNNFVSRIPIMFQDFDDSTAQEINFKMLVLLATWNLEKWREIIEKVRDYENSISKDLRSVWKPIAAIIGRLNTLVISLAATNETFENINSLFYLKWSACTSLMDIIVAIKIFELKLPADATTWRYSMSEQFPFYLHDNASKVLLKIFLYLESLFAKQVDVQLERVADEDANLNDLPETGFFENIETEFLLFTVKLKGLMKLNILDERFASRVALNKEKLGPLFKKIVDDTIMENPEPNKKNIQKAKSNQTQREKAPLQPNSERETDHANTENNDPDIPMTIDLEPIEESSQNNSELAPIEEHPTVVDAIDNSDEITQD

binding [1]: binds
binding [2]: binds
B1: Mcd1 (protein, UniProt Q12158 1-566)
chain: MVTENPQRLTVLRLATNKGPLAQIWLASNMSNIPRGSVIQTHIAESAKEIAKASGCDDESGDNEYITLRTSGELLQGIVRVYSKQATFLLTDIKDTLTKISMLFKTSQKMTSTVNRLNTVTRVHQLMLEDAVTEREVLVTPGLEFLDDTTIPVGLMAQENSMERKVQGAAPWDTSLEVGRRFSPDEDFEHNNLSSMNLDFDIEEGPITSKSWEEGTRQSSRNFDTHENYIQDDDFPLDDAGTIGWDLGITEKNDQNNDDDDNSVEQGRRLGESIMSEEPTDFGFDLDIEKEAPAGNIDTITDAMTESQPKQTGTRRNSKLLNTKSIQIDEETENSESIASSNTYKEERSNNLLTPQPTNFTTKRLWSEITESMSYLPDPILKNFLSYESLKKRKIHNGREGSIEEPELNVSLNLTDDVISNAGTNDNSFNELTDNMSDFVPIDAGLNEAPFPEENIIDAKTRNEQTTIQTEKVRPTPGEVASKAIVQMAKILRKELSEEKEVIFTDVLKSQANTEPENITKREASRGFFDILSLATEGCIGLSQTEAFGNIKIDAKPALFERFINA

Source: publication PMC4352044
